Results as given in article PMC5379108.
No constants are given. Whether binding was seen depends on the method and setting. Binding seen in cells or lysates may run through a third protein. Some entries that bind do so weakly or less than the wild type.

By UniProt entry, the sequences of proteins in these tests, tags left out.
UniProt O35382: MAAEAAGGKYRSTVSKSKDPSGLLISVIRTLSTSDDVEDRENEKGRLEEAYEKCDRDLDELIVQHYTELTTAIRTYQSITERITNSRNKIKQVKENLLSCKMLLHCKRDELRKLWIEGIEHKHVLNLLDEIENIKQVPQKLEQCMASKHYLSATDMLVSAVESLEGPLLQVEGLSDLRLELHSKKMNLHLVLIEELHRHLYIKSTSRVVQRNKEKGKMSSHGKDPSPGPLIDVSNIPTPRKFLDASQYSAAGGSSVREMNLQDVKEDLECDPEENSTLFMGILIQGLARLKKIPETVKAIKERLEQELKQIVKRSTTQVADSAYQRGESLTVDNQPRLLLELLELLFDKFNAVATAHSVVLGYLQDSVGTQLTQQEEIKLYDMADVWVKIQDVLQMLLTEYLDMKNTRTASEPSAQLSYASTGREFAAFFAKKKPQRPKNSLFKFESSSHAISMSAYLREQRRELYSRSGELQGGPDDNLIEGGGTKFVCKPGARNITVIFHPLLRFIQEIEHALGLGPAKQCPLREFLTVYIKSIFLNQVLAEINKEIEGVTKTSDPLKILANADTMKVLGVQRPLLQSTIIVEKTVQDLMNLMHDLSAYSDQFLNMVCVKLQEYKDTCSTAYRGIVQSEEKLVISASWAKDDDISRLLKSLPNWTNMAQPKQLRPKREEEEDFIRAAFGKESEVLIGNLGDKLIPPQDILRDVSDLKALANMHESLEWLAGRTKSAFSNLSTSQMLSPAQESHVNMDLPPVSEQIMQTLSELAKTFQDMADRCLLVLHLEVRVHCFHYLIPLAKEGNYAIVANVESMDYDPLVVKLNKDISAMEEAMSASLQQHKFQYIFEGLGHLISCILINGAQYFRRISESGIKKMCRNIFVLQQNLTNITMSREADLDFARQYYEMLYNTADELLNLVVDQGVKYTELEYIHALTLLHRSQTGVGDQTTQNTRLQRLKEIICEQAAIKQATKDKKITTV
UniProt Q99NH2: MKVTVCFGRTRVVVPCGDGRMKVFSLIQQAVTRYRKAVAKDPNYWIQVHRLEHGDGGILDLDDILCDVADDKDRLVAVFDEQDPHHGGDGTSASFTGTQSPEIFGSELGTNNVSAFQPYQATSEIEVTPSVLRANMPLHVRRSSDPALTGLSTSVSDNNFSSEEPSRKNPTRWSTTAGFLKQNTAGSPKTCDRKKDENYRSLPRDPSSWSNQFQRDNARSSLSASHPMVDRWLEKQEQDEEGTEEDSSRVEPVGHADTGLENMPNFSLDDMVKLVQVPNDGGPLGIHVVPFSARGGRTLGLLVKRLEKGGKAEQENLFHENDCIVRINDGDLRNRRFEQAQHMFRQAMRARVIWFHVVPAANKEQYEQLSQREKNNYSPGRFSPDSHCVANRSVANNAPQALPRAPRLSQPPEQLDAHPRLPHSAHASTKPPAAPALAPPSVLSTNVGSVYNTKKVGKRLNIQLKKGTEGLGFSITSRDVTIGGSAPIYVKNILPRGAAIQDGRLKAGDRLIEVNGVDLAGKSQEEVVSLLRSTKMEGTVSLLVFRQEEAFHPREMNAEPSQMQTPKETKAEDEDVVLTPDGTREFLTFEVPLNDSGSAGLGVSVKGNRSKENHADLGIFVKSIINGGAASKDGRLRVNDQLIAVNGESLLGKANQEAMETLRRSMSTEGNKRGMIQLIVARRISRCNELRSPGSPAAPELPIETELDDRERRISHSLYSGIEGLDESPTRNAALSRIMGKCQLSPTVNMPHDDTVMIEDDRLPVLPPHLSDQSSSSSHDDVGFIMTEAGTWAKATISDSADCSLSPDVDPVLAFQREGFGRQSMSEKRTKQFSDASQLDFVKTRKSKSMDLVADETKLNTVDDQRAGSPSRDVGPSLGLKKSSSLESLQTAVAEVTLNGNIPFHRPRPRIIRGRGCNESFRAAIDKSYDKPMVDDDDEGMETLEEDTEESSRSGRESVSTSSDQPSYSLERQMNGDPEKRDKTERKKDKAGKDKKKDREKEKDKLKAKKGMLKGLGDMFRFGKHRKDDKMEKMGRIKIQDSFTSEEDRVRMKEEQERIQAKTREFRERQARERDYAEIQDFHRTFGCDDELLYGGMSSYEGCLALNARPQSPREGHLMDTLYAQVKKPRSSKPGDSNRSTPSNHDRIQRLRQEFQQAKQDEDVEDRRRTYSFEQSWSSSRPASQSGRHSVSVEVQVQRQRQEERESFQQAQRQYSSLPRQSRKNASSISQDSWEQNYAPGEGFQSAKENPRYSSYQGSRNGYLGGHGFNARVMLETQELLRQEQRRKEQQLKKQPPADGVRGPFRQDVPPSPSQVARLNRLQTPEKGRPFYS

Biological target: Sec8 (endogenous, NMuMG) (mouse (endogenous in NMuMG)) (UniProt O35382)
Test: co-IP; endogenous proteins; Sec8 immunoprecipitated with anti-Sec8 (14/SEC8) from NMuMG cells, mouse IgG as control; also after silencing of Par3 or of aPKC; lysis in 0.1% Triton-X100, 20 mM HEPES pH 7.4, 50 mM NaCl, 2 mM EDTA

Par3 (endogenous, NMuMG) (from UniProt Q99NH2 1-1333)
binding: binds
